# Experimental data published in PubChem BioAssay AID504648 (National Center for Advancing Translational Sciences (NCATS), 2011).
# Among all 390,000 compounds or so, about 610 (0.16%) were called active. The inconclusive results got no clear call from the source; some entries with a clear call stand among them for comparison. Calls come from the whole dose curve; as a rule, active = well fitted inhibition curve with a large enough effect; inconclusive = small, poorly fitted or top-dose-only effect, or effect the other way, or another doubt; inactive = no such curve, though single readings can be large or run the other way. Potencies of inconclusive entries are doubtful fits and often do not repeat.
# Test: Nrf2 qHTS screen for inhibitors: counterscreen for cytotoxicity
# Settings: A549 ARE-Fluc cells, CellTiter-Fluor viability, 18-24 h; activity change, negative = cytotoxicity: at 46 µM (top of the series)
# How it was run: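 A549 ARE_Fluc cells in 5% FBS OPTI-MEM were exposed to compounds in concentration-response for 18-24 h at 37 deg C. Viability was read by CellTiter-Fluor fluorescence (Ex 405/Em 525) after 30 min, before the luciferase read.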
# % is set by controls: 0 for no effect and ±100 for the full control effect; potency is the fitted concentration of half-maximal effect.
SMILES,"activity change, negative = cytotoxicity",Potency
CN(CC(=O)Nc1ccccc1Cl)CC(=O)Nc1sc2c(c1C(N)=O)CCC2,inactive: -6.32%,–
COc1ccc(S(=O)(=O)N2CCC(C(=O)Nc3cc(C(F)(F)F)ccc3Cl)CC2)cc1,–,"inconclusive: 18.4 µM [falling, partial curve, poor fit]"
CCC(C)N1C(=O)/C(=C/c2c(NCCCOC(C)C)nc3c(C)cccn3c2=O)SC1=S (configuration not stated),–,"inconclusive: 29.1 µM [falling, single point]"
O=C(NNS(=O)(=O)c1ccc(Cl)cc1)c1cccc(S(=O)(=O)N2CCOCC2)c1,–,"inconclusive: 0.651 µM [activator, full curve, poor fit]"
CCOC(=O)CCc1c(C)nc2cc(-c3ccc(Cl)cc3)[nH]n2c1=O,inactive: -5.85%,–
COc1ccc(-c2ccc(OC)c(C3C4C=CCCC4(C)C(=O)N3Cc3ccccc3)c2)cc1OC (configuration not stated),–,"inconclusive: 29.1 µM [falling, single point]"
Cc1cn([C@@H](CCCCNC(=O)OC(C)(C)C)C(=O)NCCCCCCCCCCC(=O)N2CCN(C(=O)OC(C)(C)C)CC2)nn1,–,active: 16.4 µM
CC1CC(N(C(=O)c2ccc(Cl)cc2)c2ccccc2)c2ccccc2N1C(=O)c1ccco1 (configuration not stated),–,"inconclusive: 20.6 µM [falling, single point]"
OCC[C@@H]1C[C@@H](O)[C@H](O)[C@@]2(Cc3ccccc3CCO2)O1,inactive: 2.45%,–
CCCC1=NN2C(=N)/C(=C\c3ccc(SCc4ccco4)o3)C(=O)N=C2S1,–,"inconclusive: 29.1 µM [falling, partial curve, poor fit]"
O=C(Nc1ccc(Cl)cc1)c1ccc(-n2cccn2)c([N+](=O)[O-])c1,–,"inconclusive: 16.4 µM [falling, single point]"
O=C(NCc1ccc(F)cc1)c1cc(S(=O)(=O)N2CCCCC2)ccc1Cl,inactive: -7.84%,–
Cc1cc(C)c(NC(=O)c2sc3nc4c(cc3c2N)C(=O)CC(C)(C)C4)c(C)c1,inactive: 23.8%,–
Cc1cc(C)c2c(c1)/C(=C/C(=O)c1ccc(Br)s1)C(=O)N2,–,"inconclusive: 4.11 µM [falling, single point]"
CC(C)CC(C(=O)NC1CCCCC1)N(Cc1cccs1)C(=O)c1snc(C(N)=O)c1N (configuration not stated),–,"inconclusive: 20.6 µM [falling, single point]"
CCN(CC)C(=O)c1ccc(/C=C/c2c[nH]c3ccccc23)[n+](C)c1,–,"inconclusive: 11.6 µM [falling, partial curve, poor fit]"
CCCSc1nc(N)nc(-c2cccs2)c1C#N,inactive: -0.221%,–
COc1cc(C(=O)OCC(C)=O)ccc1OCc1c(C)noc1C,–,"inconclusive: 3.66 µM [falling, partial curve, poor fit]"
Cc1cc(C)c(C#N)c(N2CCCC(C(N)=O)C2)n1 (configuration not stated),inactive: -2.48%,–
COc1ccccc1NC(=O)CCCc1nc(-c2ccc(OC)c(OC)c2)no1,inactive: 4.36%,–
CCCCC(=O)Nc1nnc(S(=O)(=O)N(C)Cc2ccccc2)s1,inactive: -0.212%,–
Cc1oc2c(CN3CCCC3)c(O)ccc2c(=O)c1Oc1ccccc1Br,–,"inconclusive: 6.51 µM [activator, single point]"
CCc1ccccc1OCC(=O)Nc1nc(-c2cccnc2)cs1,–,"inconclusive: 2.59 µM [falling, full curve]"

SMILES,"activity change, negative = cytotoxicity",Potency
CCCN(CCC)c1nc2c(C)cccn2c(=O)c1/C=C1/SC(=S)N(Cc2ccco2)C1=O,–,"inconclusive: 16.4 µM [falling, partial curve, poor fit]"
O=C1C=C(Nc2cccc3cccnc23)c2ccccc2C1=O,–,"inconclusive: 29.1 µM [falling, single point]"
O=C1NC(=Nc2ccccc2Cl)S/C1=C\c1cccc([N+](=O)[O-])c1O,–,"inconclusive: 29.1 µM [falling, partial curve, poor fit]"
CCN1CCN(C(c2cccs2)C(C)NS(=O)(=O)c2ccc(Br)cc2)CC1 (configuration not stated),–,"inconclusive: 23.1 µM [activator, partial curve, poor fit]"
CN(CC(=O)Nc1ccncc1)S(=O)(=O)c1ccc(Br)cc1,–,"inconclusive: 18.4 µM [falling, single point]"
CCN(CC)C(=O)c1sc2c(c1C)c(=O)n(CCc1ccccc1)c(=O)n2Cc1cc(C)ccc1C,inactive: -3.09%,–
NC(=S)NN=Cc1nccc2ccccc12,–,"inconclusive: 7.31 µM [falling, partial curve, poor fit]"
COc1cc(C2c3cc4c(cc3OC(NCCc3ccccc3)C2C)OCO4)cc(OC)c1OC (configuration not stated),–,"inconclusive: 9.2 µM [falling, partial curve, poor fit]"
O=C(Cn1ncc2c3ccccc3n(Cc3cccc(Cl)c3)c2c1=O)Nc1ccc(F)cc1F,inactive: 3.38%,–
N#C/C(=C\c1cccs1)C(=O)Nc1ccccn1,inactive: -12.9%,–
Cc1cc(C)n2nc(SCC(=O)N(Cc3ccccc3)C3CCS(=O)(=O)C3)nc2n1 (configuration not stated),inactive: 7.65%,–
CC(C)(C)c1ccc(Cn2nnc3c(=O)[nH]c(C4CCN(C(=O)Cc5cccs5)CC4)nc32)cc1,–,"inconclusive: 5.17 µM [falling, partial curve, poor fit]"
COc1ccc(Nc2nnc(-c3ccc(C)cc3)c3ccccc23)cc1C(=O)N1CCCCC1,–,"inconclusive: 29.1 µM [falling, single point]"
CC(=O)NS(=O)(=O)c1ccc(N=c2ssc3c2-c2ccc(C)cc2NC3(C)C)cc1,–,"inconclusive: 7.31 µM [activator, partial curve, poor fit]"
Cc1ccccc1CN1C2=NCCN2c2ccccc21,–,"inconclusive: 6.51 µM [activator, partial curve, poor fit]"
CCn1ncc(Br)c1C(=O)Nc1cccc(F)c1,inactive: 3.69%,–
C=CC(=O)Nc1cccc(CN2C(=O)N(c3cc(OC)cc(OC)c3)Cc3cnc(NCCCCN(CC)CC)nc32)c1,–,active: 6.51 µM
CCOc1ccc(S(=O)(=O)N(CC)CC(=O)NCc2ccco2)cc1C,–,"inconclusive: 4.11 µM [activator, single point]"
CCOC(=O)c1nn(-c2ccc(C)cc2)c(=O)cc1OCC(=O)Nc1ccc(OC)cc1,inactive: 1.55%,–
Cc1ccc(NCc2ccc(O)c3ncccc23)cc1C,inactive: -5.66%,–
CC(C)(C)c1csc(Sc2ncccc2[N+](=O)[O-])n1,–,"inconclusive: 1.3 µM [activator, full curve, poor fit]"
COC(=O)c1ccc2c(c1)c(-c1ccccc1)c(-c1ccccc1)n2C,–,"inconclusive: 25.9 µM [activator, partial curve, poor fit]"
Cc1ccccc1C(=O)NCC(=O)OC(C(=O)Nc1cc(C(F)(F)F)ccc1Cl)c1ccccc1 (configuration not stated),inactive: 5.93%,–

SMILES,"activity change, negative = cytotoxicity",Potency
Cc1cc2oc(=O)cc(Cn3ncc(Cl)c(Cl)c3=O)c2cc1Cl,–,"inconclusive: 29.1 µM [falling, single point]"
CCCCOc1ccc(-c2csc(N)n2)cc1[N+](=O)[O-],–,"inconclusive: 20.6 µM [activator, partial curve, poor fit]"
COc1ccc(Nc2cc3n(c(=O)n2)CCc2cc(OC)c(OC)cc2-3)cc1,–,"inconclusive: 6.51 µM [activator, single point]"
Cc1ccc(C(=O)CSc2nnc(CNc3ccc(C)cc3C)n2Cc2ccco2)cc1,–,"inconclusive: 29.1 µM [falling, single point]"
O=C1C(Nc2ccccc2)=C/C(=N/S(=O)(=O)c2cccs2)c2ccccc21,–,active: 14.6 µM
COc1ccc2c(c1)sc(N)[n+]2Cc1cc(C)cc2cccnc12,–,"inconclusive: 23.1 µM [falling, partial curve]"
CCOc1cc(C)c(C(C)C)cc1S(=O)(=O)N1CC(C)OC(C)C1 (configuration not stated),–,"inconclusive: 18.4 µM [activator, single point]"
COc1ccc(Nc2cc(C(=O)NCCCN3CCN(c4ccccc4F)CC3)c3ccccc3n2)c(OC)c1,–,"inconclusive: 16.4 µM [falling, partial curve, poor fit]"
Cc1sc2ncnc(N/N=C/c3ccccc3O)c2c1C,–,"inconclusive: 29.1 µM [falling, partial curve, poor fit]"
Cc1ccc(S(=O)(=O)c2c(O)cc(C)c(NS(=O)(=O)c3ccc(Cl)cc3)c2C)cc1,inactive: -8.02%,–
O=C(CN1C(=O)S/C(=C\c2cc(Cl)c(O)c(Cl)c2)C1=O)Nc1ccccc1,–,"inconclusive: 14.6 µM [falling, partial curve, poor fit]"
Cc1nc([N+](=O)[O-])c(Sc2nc3ccccc3[nH]2)n1Cc1ccccc1,inactive: -25.6%,–
Cn1nc(-c2ccccc2F)c2cc(C(=O)Nc3ccc4c(c3)OCCO4)sc21,–,"inconclusive: 29.1 µM [falling, single point]"
CC(=O)CCC1C2C(O)C(C(C)C)C(OC(=O)/C=C/c3ccccc3)CC12C (configuration not stated),inactive: -8.61%,–
COc1ccccc1NC(=O)CN1CCN(CC(=O)Nc2ccc(C)c(F)c2)CC1,inactive: -3.36%,–
COc1cc(OC)cc(-c2c(-c3cccs3)c3cc(-c4ccc(OC)c(OC)c4)ccc3n2C)c1,inactive: 4.39%,–
COc1ccc(CC(=O)Nc2cccc(S(=O)(=O)N3CCCC3)c2)cc1OC,inactive: -20.9%,–
Clc1ccc(CN(CC2CCCO2)C(c2cccs2)c2nnnn2C2CCCC2)cc1 (configuration not stated),inactive: -26.3%,–
Cc1ccc(NC(=O)/C=C/c2ccc([N+](=O)[O-])s2)c(C)c1,–,"inconclusive: 29.1 µM [falling, single point]"
COc1ccc(NC(=O)CSc2nc(-c3cccc(C)c3)[nH]c2-c2ccccc2)cc1OC,–,"inconclusive: 25.9 µM [falling, partial curve, poor fit]"
O=C(C[C@H]1C/C=C\CC[C@H](Cc2ccc(F)cc2)C(=O)O[C@@H](c2ccccc2)CNC1=O)N[C@@H](CO)Cc1ccccc1,–,"inconclusive: 20.6 µM [falling, partial curve, poor fit]"
